Source: PubChem BioAssay AID652243 (Drosophila RNAi Screening Center, 2013)
The deposit covers about 24,000 reagents; this is a random part of those that have a named target and a result. Over the whole deposit, 246 (1%) are marked active. 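Plates not normalised; calls are printed but the firefly/Renilla ratio behind them is not deposited; fold cut for lowering reported inconsistently.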 The raw values are shown without normalisation. Reagent sequences are not shown. The record does not give: the amount of reagent.

Assay: 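Fly genes required for human androgen receptor driven transcription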 (primary screen)
Cell system: Drosophila S2R+ cells
Reagents: long dsRNA against Drosophila genes
Time to read-out: 72 h (48 h, then 24 h hormone)
Treatment: synthetic androgen R1881 at 10 nM for 24 h
Measured: 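Per-well raw luminescence of the androgen-driven firefly reporter and of the Renilla control, two replicates each, without normalisation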
Direction: firefly reporter light: higher = more light from androgen-responsive reporter; Renilla control light: higher = more constitutive control signal (cell number, transfection)
Call rule: 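Hit when the log firefly-to-Renilla ratio dropped or increased by a fixed fold versus the mean of GFP or LacZ controls across duplicate plates; lowering cut given as 1.5 and as 3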
Calls: active = hit: reporter lowered or raised; inactive = no hit

| gene | dsRNA | firefly reporter light, replicate 1 | firefly reporter light, replicate 2 | Renilla control light, replicate 1 | Renilla control light, replicate 2 | call |
| --- | --- | --- | --- | --- | --- | --- |
| CG11983 | DRSC14458 | 1.52e5 | 1.73e5 | 3.32e6 | 3.18e6 | inactive |
| LanB1 | DRSC03360 | 6.04e5 | 7.43e5 | 1.34e6 | 1.67e6 | inactive |
| LanB1 | DRSC27259 | 5.22e5 | 3.21e5 | 5.65e5 | 4.48e5 | inactive |
| scyl (scylla) | DRSC11392 | 1.81e5 | 1.35e5 | 3.83e6 | 3.57e6 | inactive |
| scyl (scylla) | DRSC27699 | 3.52e5 | 2.68e5 | 4.53e5 | 5.67e5 | inactive |
| CCDC151 (Coiled-coil domain containing protein 151) | DRSC10131 | 1.08e5 | 1.09e5 | 1.87e6 | 1.56e6 | inactive |
| CCDC151 (Coiled-coil domain containing protein 151) | DRSC27319 | 2.92e5 | 2.87e5 | 7.47e5 | 7.19e5 | inactive |
| Ir67c (Ionotropic receptor 67c) | DRSC22097 | 7.21e5 | 6.64e5 | 2.21e6 | 1.89e6 | inactive |
| CG30065 | DRSC05420 | 1.48e5 | 2.02e5 | 4.57e5 | 2.68e5 | inactive |
| CG10969 | DRSC09811 | 1.67e5 | 1.43e5 | 1.47e6 | 1.29e6 | inactive |
| CG10969 | DRSC29502 | 4.63e5 | 4.27e5 | 7.51e5 | 7.51e5 | inactive |
| CG6015 | DRSC15948 | 87013 | 1.01e5 | 1.20e6 | 1.27e6 | inactive |
| CG6015 | DRSC28104 | 6.88e5 | 3.77e5 | 1.39e6 | 1.16e6 | inactive |
| Acp36DE (Accessory gland protein 36DE) | DRSC01860 | 1.67e5 | 1.90e5 | 1.84e6 | 2.07e6 | inactive |
| CG13606 | DRSC14609 | 2.34e5 | 2.26e5 | 2.90e6 | 3.10e6 | inactive |
| CG11509 (retired record) | DRSC17788 | 1.10e5 | 1.07e5 | 1.17e6 | 7.35e5 | inactive |
| CG18731 | DRSC15377 | 2.39e5 | 4.28e5 | 2.40e6 | 3.51e6 | inactive |
| sced (scrambled) | DRSC04990 | 8.23e5 | 7.40e5 | 1.68e6 | 1.51e6 | inactive |
| CG12713 | DRSC09900 | 40628 | 44173 | 5.83e5 | 4.43e5 | inactive |
| CG12713 | DRSC24697 | 9.67e5 | 9.54e5 | 9.73e5 | 9.97e5 | inactive |
| CG9743 | DRSC16552 | 1.52e5 | 93053 | 1.97e6 | 2.51e6 | inactive |
| CG9743 | DRSC28943 | 7.10e5 | 7.77e5 | 1.40e6 | 1.51e6 | inactive |
| CG5347 | DRSC19942 | 7.18e5 | 7.42e5 | 4.85e6 | 5.37e6 | inactive |
| Nup98-96 (Nucleoporin 98-96kD) | DRSC14209 | 83399 | 74165 | 1.10e6 | 1.14e6 | inactive |
| Nup98-96 (Nucleoporin 98-96kD) | DRSC14210 | 1.01e5 | 1.61e5 | 2.32e6 | 2.11e6 | inactive |

An excerpt from above, showing only “Renilla control light, replicate 1”:
LanB1 [DRSC03360]: 1.34e6
LanB1 [DRSC27259]: 5.65e5
scyl (scylla) [DRSC11392]: 3.83e6
